Measurements reported in PubChem BioAssay AID651647 (Sanford-Burnham Center for Chemical Genomics, 2012).
This is one part of the list.

Assay: MT1-MMP activation inhibitors, cellular reporter – HT1080 RFP-PRO-GFP cells, GFP/RFP fluorescence, primary screen (AID 651647)
Conditions: GFP/RFP ratio fluorescence, overnight, RFP expression control read, at 20 µM
Method in brief: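 Material – HT1080 RFP-PRO-GFP cells · Control set – DMSO wells and RFP-L50D-GFP cells · Incubation – overnight cell settling, then overnight compound exposure, 37 °C, 5% CO2 · Compound dosing – single-point 20 µM compound, 1% DMSO · Read-out – GFP/RFP fluorescence ratio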

SMILES | RFP signal change
CCc1ccc(OP(C)(=O)Nc2cccnc2)cc1 (stereo not given) | -5.8%
COc1ccccc1OP(C)(=O)Nc1c(C)n(C)n(-c2ccccc2)c1=O (stereo not given) | -0.341%
O=[N+]([O-])c1cccc2n[nH]nc12 | 2.59%
CC(=O)N1C2C3N(C(C)=O)C1C1N(C(C)=O)C(C(N1C(C)=O)N3C(C)=O)N2C(C)=O | 6.21%
O=C(OCCCN1CCCC1)C(O)(c1ccccc1)C1CCCCC1 (stereo not given) | 3.44%
CCN(CC)CC(O)COC(=O)C(O)(c1ccccc1)C1CCCCC1 (stereo not given) | -6.34%
COc1ccc(OP(C)(=O)Nc2ccc(Br)cc2)cc1 (stereo not given) | 1.27%
COc1ccc(C2=NCC(CBr)S2)cc1 (stereo not given) | -4.5%
CCC(C)N(CC(C)C)C(=S)SC(NC(C)=O)C(Cl)(Cl)Cl (stereo not given) | 2.3%
CP(=O)(Nc1ccccn1)Oc1ccc(Cl)cc1 (stereo not given) | -0.896%
CCOP(C)(=S)SCC(=O)NC(C)C(=O)O (stereo not given) | 2.68%
O=C(OC1CN2CCC1CC2)c1cccc([N+](=O)[O-])c1 (stereo not given) | -0.328%
CSc1ccc(Nc2c([N+](=O)[O-])cc([N+](=O)[O-])cc2[N+](=O)[O-])cc1 | -9.25%
CCOC(=O)c1ccc(NP(C)(=O)Oc2ccc(OC)cc2)cc1 (stereo not given) | -0.736%
CCOC(=O)c1ccc(NC(=O)C(C)(CCl)SC)cc1 (stereo not given) | 0.861%
O=[N+]([O-])c1cc([N+](=O)[O-])c(O)c([N+](=O)[O-])c1.c1ccc(Oc2ccncc2)cc1 | 3.44%
CCc1ccc(OP(C)(=O)N2CCN(c3ccc([N+](=O)[O-])cc3)CC2)cc1 (stereo not given) | -22.5%
O=C(COc1ccccc1)OC1CN2CCC1CC2 (stereo not given) | -0.383%
CP(=O)(NC(=O)Nc1ccccc1)Oc1ccccc1 (stereo not given) | -0.505%
O=C(Nc1ccncc1[N+](=O)[O-])c1ccc([N+](=O)[O-])cc1[N+](=O)[O-] | -12%

SMILES | RFP signal change
Cc1cc(C)cc(OP(C)(=O)Nc2ccc(SC(F)(F)F)cc2)c1 (stereo not given) | -3.79%
Cc1ccc(Nc2c([N+](=O)[O-])cc([N+](=O)[O-])cc2[N+](=O)[O-])cc1 | -4.75%
Cc1cccc(C)c1OP(C)(=O)Nc1ccc(SC(F)(F)F)cc1 (stereo not given) | 2.49%
CP(=O)(Nc1ccc(SC(F)(F)F)cc1)Oc1ccc(Cl)cc1 (stereo not given) | -3.34%
COP1(=S)c2c(C)nn(CCC#N)c2N=C(c2ccc(F)cc2)N1C (stereo not given) | -1.61%
CP(=O)(Oc1ccccc1)OC(c1ccccc1)C(F)(F)F (stereo not given) | 1.84%
COC(=O)C1(C)COP(=O)(N2CCCC2)OC1 (stereo not given) | 1.47%
O=P(Nc1ccccn1)(c1cccc2ccccc12)c1cccc2ccccc12 | -2.07%
Cc1cc(SC(NC=O)C(Cl)(Cl)Cl)ncn1 (stereo not given) | 4.75%
COc1ccccc1OP(C)(=O)Nc1ccccc1 (stereo not given) | 3.14%
CP(=O)(Nc1ccccc1Br)Oc1ccccc1 (stereo not given) | 4.61%
O=[N+]([O-])c1ccc(Nc2ccc(Oc3ccc([N+](=O)[O-])cc3[N+](=O)[O-])cc2)c([N+](=O)[O-])c1 | -3.46%
CP(=S)(Nn1cnnc1)Oc1ccccc1 (stereo not given) | 2.2%
CCOC(=O)Nc1cccc([As](=O)(O)O)c1 | 10.1%
COP(=O)(OC)N1CC1c1ccccc1 (stereo not given) | 0.835%
CCCCOc1ccc(C(=O)NCC2(N3CCCCC3)CCCCC2)cc1OC | 2.48%
Cc1cc(SC(NC(=O)c2ccccc2)C(Cl)(Cl)Cl)nc(C(C)C)n1 (stereo not given) | -1.82%
CCOC(=O)Nc1ccc([As](=O)(O)O)c(O)c1 | 8.48%
O=C(O)C(=O)c1ccc(N(CCCl)CCCl)cc1.c1ccc(Nc2ccccc2)cc1 | -2.41%
CC1CCNP(=O)(N(CCCl)CCCl)O1 (stereo not given) | 1.86%

SMILES | RFP signal change
CCN(CC)C(=S)SC(NC=O)C(Cl)(Cl)Cl (stereo not given) | 2.99%
O=C(OC1CN2CCC1CC2)c1cccc2[nH]cnc12 (stereo not given) | 1.84%
COc1ccccc1OP(C)(=O)Nc1cc(Cl)ccc1C (stereo not given) | 6.48%
CC(C)NC(=O)NP(=O)(Oc1ccccc1)Oc1ccccc1 | 2.27%
O=[N+]([O-])c1cc([N+](=O)[O-])c(-c2ccn[nH]2)s1 | -7.27%
COc1ccc(OP(C)(=O)Nc2cccc(F)c2)cc1 (stereo not given) | -0.463%
Cc1cc(C)cc(OP(C)(N)=O)c1 (stereo not given) | 1%
CCOC(=O)c1ccc(NP(C)(=O)Oc2ccccc2)cc1 (stereo not given) | -1.89%
ClCCSc1nnc(-c2cccnc2)o1 | -0.76%
COc1ccccc1OP(C)(=O)Nc1ccc(C)cc1 (stereo not given) | 1.17%
Cc1ccc(NP(C)(=O)Oc2ccccc2)c(C)c1 (stereo not given) | 3.95%
COC(=O)C1(C)COP(=O)(N2CCCCCC2)OC1 (stereo not given) | 0.774%
CC(C)(C)c1ccc(OP(C)(=O)Nc2ccc(SC(F)(F)F)cc2)cc1 (stereo not given) | -8.54%
[N-]=[N+]=NC1CCCCC1NC(=O)c1cc([N+](=O)[O-])cc([N+](=O)[O-])c1 (stereo not given) | 1.57%
Cc1ccc(OP(=O)(Nc2ccc([N+](=O)[O-])cn2)Oc2ccc(C)cc2)cc1 | -4.67%
Cc1cccc(C)c1OP(C)(N)=O (stereo not given) | 10%
Cc1ccc2nc3c(c(C)c2c1)CC(C(Cl)Cl)S3 (stereo not given) | -1.53%
O=[N+]([O-])c1ccc2c(c1)C=Nc1ccccc1O2 | -8.9%
O=[N+]([O-])c1cc([N+](=O)[O-])c(Nc2cccnc2)c([N+](=O)[O-])c1 | -2.17%
C[As](=O)(O)c1cccc(C(=O)O)c1 | 1.68%
